Source: PubChem BioAssay AID540256 (National Center for Advancing Translational Sciences (NCATS), 2011)
In all, about 300,000 compounds went through this assay and about 3,700 (1.2%) were called active. The shares of active, inactive and inconclusive entries below differ from those in the screen. Calls follow the shape of the full dose curve; tested in HEK293 cells. A potency beside an inconclusive call is a rough fit, not a confirmed value.

Test: qHTS for Inhibitors of binding or entry into cells for Lassa Virus; also: nearly all actives have a fitted effect of over 50% in size
Settings: Lassa virus pseudotype entry inhibition, cell reporter; series mostly up to 37.9 µM
Potency is read from the fitted curve at half-maximal effect.

Row | SMILES | Potency
1 | COc1ccc2nc(NS(=O)(=O)c3ccc(NC(C)=O)cc3)sc2c1 | inactive
2 | O=C(O)c1cc2c(cc1NC(=O)c1c(F)cccc1Cl)OCCCO2 | inconclusive: 0.562 µM [inhibitor, full curve, poor fit]
3 | FC(F)(F)c1cc(-c2ccco2)nc(NCc2ccccc2)n1 | inactive
4 | O=C(Nc1cc(-c2nc3ccccc3o2)ccc1Cl)c1cc([N+](=O)[O-])ccc1N1CCOCC1 | inconclusive: 1 µM [inhibitor, full curve, poor fit]
5 | COc1cccc(CNC(=O)C2CCN(c3ncnc4c3nc3n4CCCCC3)CC2)c1 | inconclusive: 6.31 µM [activator, partial curve, poor fit]
6 | Cc1nc2ccc(NC(=O)c3ccc(Cl)c(S(=O)(=O)N(C)c4ccccc4)c3)cc2s1 | inconclusive: 35.5 µM [inhibitor, partial curve, poor fit]
7 | CC(C)c1ccc(NC(=O)CSC2=Nc3ccccc3C3=NC(CC(=O)NCCc4ccccc4)C(=O)N23)cc1 (stereo unspecified) | inactive
8 | CCN1C/C(=C/c2cccc([N+](=O)[O-])c2)C(=O)/C(=C/c2cccc([N+](=O)[O-])c2)C1 | active: 2.82 µM
9 | CCCc1noc(-c2ccc(NCc3ccccc3OC)c([N+](=O)[O-])c2)n1 | inactive
10 | Cc1ccc(C)c(N2CCN(S(=O)(=O)c3ccc(C4CCCCC4)cc3)CC2)c1 | inactive
11 | COc1ccc(NS(=O)(=O)c2cc(NC(=O)c3ccccc3F)ccc2N2CCCC2)cc1 | inconclusive: 2 µM [inhibitor, full curve, poor fit]
12 | Cc1ccc(Nc2c(-c3cccc(Cl)c3)nc3cccc(C)n23)cc1 | inconclusive: 35.5 µM [activator, single point]
13 | Cc1ccc(NC(=O)CSc2nc(=O)n(CCN3CCOCC3)c3c2CCC3)cc1Cl | inactive
14 | O=C(OCc1cc(=O)n2c(n1)sc1ccccc12)c1ccc(O)cc1 | inactive
15 | Cc1cccc(OCCCn2c(=O)sc3ccccc32)c1 | inconclusive: 1.16 µM [activator, full curve]
16 | O=C(Nc1cccc(Cl)c1)c1ccc2c(c1)OCCO2 | inconclusive: 10 µM [inhibitor, partial curve, poor fit]
17 | COc1ccccc1N1CCN(Cc2cc(COC(C)C)c3cccnc3c2O)CC1 | inconclusive: 6.31 µM [inhibitor, partial curve, poor fit]
18 | COc1ccc(C(=O)N2N=C(c3cccs3)CC2c2ccccc2O)cc1 (stereo unspecified) | inconclusive: 35.5 µM [inhibitor, single point]
19 | COc1ccc(S(=O)(=O)N(C(=O)c2ccncc2)c2ccc3oc(C)c(C(C)=O)c3c2)cc1 | inconclusive: 7.08 µM [inhibitor, partial curve, poor fit]
20 | Cc1ccnc(NC(c2cc(C)ccc2O)c2ccc3cccnc3c2O)c1 (stereo unspecified) | inconclusive: 22.4 µM [inhibitor, single point]
21 | CCc1ccc(CN(C)C(C)C(=O)Nc2ccc(S(=O)(=O)N3CCCC3)cc2)cc1 (stereo unspecified) | inconclusive: 35.5 µM [inhibitor, single point]

3 entries already listed, sorted by heavy-atom count, rising.
Row | SMILES | Potency
2 | O=C(O)c1cc2c(cc1NC(=O)c1c(F)cccc1Cl)OCCCO2 | inconclusive: 0.562 µM [inhibitor, full curve, poor fit]
10 | Cc1ccc(C)c(N2CCN(S(=O)(=O)c3ccc(C4CCCCC4)cc3)CC2)c1 | inactive
4 | O=C(Nc1cc(-c2nc3ccccc3o2)ccc1Cl)c1cc([N+](=O)[O-])ccc1N1CCOCC1 | inconclusive: 1 µM [inhibitor, full curve, poor fit]

More results

Row | SMILES | Potency
22 | Cc1ccc(C(=O)c2cc(C)sc2NC(=O)CN2CCN(C(=O)c3ccco3)CC2)cc1 | inconclusive: 1.41 µM [inhibitor, full curve, poor fit]
23 | Fc1ccc(C2NCCc3[nH]cnc32)cc1 (stereo unspecified) | inconclusive: 22.4 µM [activator, partial curve, poor fit]
24 | CC(=O)NCCNc1nc2c(-c3cccc(C(F)(F)F)c3)nnn2c2ccccc12 | inconclusive: 0.316 µM [inhibitor, partial curve, poor fit]
25 | O=C(Nc1n[nH]c2cc(-c3ccccc3)ccc12)C1CC1 | inconclusive: 0.888 µM [inhibitor, full curve]
26 | O=c1cc(N2CCN(c3ccc(F)cc3)CC2)[nH]c(=O)n1-c1cccc(Br)c1 | inconclusive: 4.47 µM [inhibitor, full curve, poor fit]
27 | CN(C)CC1Oc2ccccc2OC1(O)c1ccccc1 (stereo unspecified) | inconclusive: 8.91 µM [inhibitor, partial curve, poor fit]
28 | COc1cc(/C=N/Nc2nc(Nc3ccccc3)nc(N3CCOCC3)n2)ccc1OC(=O)c1ccco1 | inconclusive: 16.4 µM [inhibitor, single point]
29 | COc1ccc(C2COC(=O)C2=N)c(NC(=O)c2ccc(Cl)cc2)c1 (stereo unspecified) | inactive
30 | CCCc1cc(=O)oc2c3c(cc(OCC(=O)N[C@@H](C)C(=O)O)c12)OC(C)(C)CC3 | inactive
31 | COCCN1CN=C(NS(=O)(=O)c2ccc(C)cc2)NC1 | inconclusive: 2.24 µM [activator, single point]
32 | CCCCNC(=O)C1c2cc(OC)c(OC)cc2C(=O)N(C)C1c1ccc(OC)cc1 (stereo unspecified) | inactive
33 | CCN(CCCn1c(SCC#N)nc2ccccc2c1=O)c1ccccc1 | inconclusive: 32.6 µM [inhibitor, single point]
34 | COc1ccc(NC(=O)c2ccco2)c(OC)c1 | inconclusive: 17.8 µM [activator, single point]
35 | COc1ccccc1CNC(=O)c1cnn(-c2ccc(F)cc2F)c1C1CCN(C(=O)OC(C)(C)C)CC1 | inconclusive: 7.08 µM [inhibitor, partial curve, poor fit]
36 | O=C(CN1C(=O)COc2ccccc21)NCCCN1CCN(Cc2ccccc2)CC1 | inactive
37 | Cc1ccccc1C(=O)NC(NC(=O)c1ccccc1C)c1cccc([N+](=O)[O-])c1 | inconclusive: 20 µM [inhibitor, single point]
38 | CCOC(=O)N1CCN(c2c(NCCN3CCN(c4ccccc4F)CC3)c(=O)c2=O)CC1 | inconclusive: 3.55 µM [activator, full curve]
39 | COC(=O)CCC(=O)Nc1cccc(Br)c1 | inactive
40 | Cc1cc(N)n2nc(-c3ccccc3)cc2n1 | inconclusive: 5.17 µM [inhibitor, full curve, poor fit]
41 | Cc1cccc(Cc2c(C)nc3nc(SCC(=O)NC4CCCCC4)nn3c2C)c1 | inconclusive: 2.82 µM [activator, full curve, poor fit]
